Assay results as given in US20100099676A1 (SHIONOGI & CO., LTD., priority 2006, published 2010).
Some of these results come from one statement about several compounds together. At least one structure is not confirmed: it was looked up by name or label, or the drawing left a doubt.

Biological target: T1, MMP-13 (Homo sapiens, UniProt P45452)
T1 construct: purchased Calbiochem (EMD/MERCK Biosciences)
Test: Enzyme inhibiting activity of MMPs, fluorogenic peptide substrate
Assay type: biochemical
Settings: compounds not described in the Tables

Structure (SMILES): C[C@@H](NS(=O)(=O)N1CCN(c2ccc(C#Cc3ccc4cccc(C(=O)NCCN(C)C(=O)OC(C)(C)C)c4c3)cc2)CC1)C(=O)O [Compound I-63, (R)-2-[4-(4-{8-[2-(tert-butoxycarbonylmethylamino)-ethylcarbamoyl]-naphthalen-2-ylethynyl}-phenyl)-piperazine-1-sulfonylamino]-proponic acid]
- IC50: 10 to 100 nM
